PubChem BioAssay AID504774 | Drosophila RNAi Screening Center | 2011

Test: 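Knock-downs that shift viability of MMS-exposed cells relative to untreated ones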 (primary screen)
System: Drosophila Kc167 cells
Reagents: long dsRNA against Drosophila genes, about 0.25 µg dsRNA per well
Time to read-out: about 6 days: 3 days knock-down, then 3 days with or without MMS
Conditions: methyl methanesulphonate 0.004% (w/v) for 3 days after knock-down
Detection: 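ATP-dependent luminescence as a measure of live cells in MMS-exposed wells, quantile normalised within each plate, with replicate values also given as a mean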
Reading the numbers: mean viability with MMS and viability with MMS: higher = more surviving cells after MMS
The deposit covers about 23,000 reagents; this is a random part of those that have a named target and a result. 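Values are quantile-normalised luminescence on an arbitrary scale; higher means more cells surviving MMS.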 Reagents against one gene are numbered here. Reagent sequences are not shown.

| gene | dsRNA no. | mean viability with MMS | viability with MMS, replicate 1 | viability with MMS, replicate 2 |
| --- | --- | --- | --- | --- |
| Phm (GeneID 37823) | 1 | 3.63e6 | 4.20e6 | 4.03e6 |
| CG34135 (GeneID 4379850) | 1 | 3.40e6 | 3.75e6 | 3.98e6 |
| CG7512 (GeneID 39289) | 1 | 3.44e6 | 3.91e6 | 3.86e6 |
| CG18636 (GeneID 2768923) | 1 | 3.44e6 | 3.87e6 | 3.93e6 |
| CG7745 (GeneID 36210) | 1 | 3.00e6 | 3.54e6 | 3.60e6 |
| CG7745 (GeneID 36210) | 2 | 3.65e6 | 4.29e6 | 3.99e6 |
| CG15706 (GeneID 36799) | 1 | 3.52e6 | 3.89e6 | 4.09e6 |
| CG30496 (GeneID 246652) | 1 | 3.76e6 | 4.40e6 | 4.12e6 |
| vimar (GeneID 35609) | 1 | 3.64e6 | 3.89e6 | 4.13e6 |
| CG3061 (GeneID 41707) | 1 | 3.52e6 | 4.05e6 | 3.94e6 |
| CG32032 (GeneID 192535) | 1 | 3.48e6 | 3.95e6 | 3.95e6 |
| CG13506 (GeneID 37556) | 1 | 3.35e6 | 3.84e6 | 3.67e6 |
| AcCoAS (GeneID 40348) | 1 | 3.51e6 | 3.97e6 | 4.01e6 |
| AcCoAS (GeneID 40348) | 2 | 3.37e6 | 3.88e6 | 3.74e6 |
| AcCoAS (GeneID 40348) | 3 | 3.75e6 | 4.16e6 | 4.30e6 |
| Ugt49B1 (GeneID 37420) | 1 | 3.50e6 | 4.09e6 | 3.84e6 |
| CG5910 (GeneID 40264) | 1 | 3.59e6 | 4.13e6 | 4.01e6 |
| Rdh1 (GeneID 35708) | 1 | 3.42e6 | 4.01e6 | 3.68e6 |
| Naa30B (GeneID 317976) | 1 | 3.59e6 | 4.07e6 | 4.04e6 |
| mav (GeneID 43804) | 1 | 3.59e6 | 4.04e6 | 4.10e6 |
| Tim9a (GeneID 32294) | 1 | 3.54e6 | 4.03e6 | 3.99e6 |
| Vps13 (GeneID 35693) | 1 | 3.38e6 | 3.82e6 | 3.84e6 |
| CG17807 (GeneID 37585) | 1 | 3.64e6 | 3.99e6 | 4.30e6 |
| dany (GeneID 246593) | 1 | 3.58e6 | 4.09e6 | 4.05e6 |
| Su(var)3-9 (GeneID 41483) | 1 | 3.55e6 | 3.99e6 | 4.06e6 |
| sals (GeneID 41377) | 1 | 3.53e6 | 3.94e6 | 4.06e6 |
| sals (GeneID 41377) | 2 | 3.49e6 | 3.96e6 | 3.99e6 |
| CG5853 (GeneID 34322) | 1 | 3.51e6 | 4.01e6 | 3.95e6 |
| CG5853 (GeneID 34322) | 2 | 3.70e6 | 4.37e6 | 4.08e6 |
